Reference: PMC5577449
Like-named read-outs stand apart in the source and are kept apart here. No constants are given. Whether binding was seen depends on the method and setting. In cells and extracts the contact can be indirect. Some results given as binding are weak or reduced against the parent protein; the word gives no strength. For some assays here: Where a sequence is shown, tags or fusion partners need not be part of it.

Protein sequences, listed by entry. Tags and fused reporters are not part of them.
UniProt P97454: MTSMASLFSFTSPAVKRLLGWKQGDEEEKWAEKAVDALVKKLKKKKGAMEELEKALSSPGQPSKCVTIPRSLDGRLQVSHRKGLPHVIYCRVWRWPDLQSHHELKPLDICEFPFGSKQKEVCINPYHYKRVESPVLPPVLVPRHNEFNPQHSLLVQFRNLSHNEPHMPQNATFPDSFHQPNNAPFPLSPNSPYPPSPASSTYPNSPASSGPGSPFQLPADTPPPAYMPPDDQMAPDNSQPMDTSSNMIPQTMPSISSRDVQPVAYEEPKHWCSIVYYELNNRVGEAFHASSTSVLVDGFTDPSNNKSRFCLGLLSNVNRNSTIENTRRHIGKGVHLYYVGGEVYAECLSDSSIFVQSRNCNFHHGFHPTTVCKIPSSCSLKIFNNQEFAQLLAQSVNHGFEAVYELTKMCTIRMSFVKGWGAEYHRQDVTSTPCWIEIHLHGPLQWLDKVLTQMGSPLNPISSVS
UniProt Q15797: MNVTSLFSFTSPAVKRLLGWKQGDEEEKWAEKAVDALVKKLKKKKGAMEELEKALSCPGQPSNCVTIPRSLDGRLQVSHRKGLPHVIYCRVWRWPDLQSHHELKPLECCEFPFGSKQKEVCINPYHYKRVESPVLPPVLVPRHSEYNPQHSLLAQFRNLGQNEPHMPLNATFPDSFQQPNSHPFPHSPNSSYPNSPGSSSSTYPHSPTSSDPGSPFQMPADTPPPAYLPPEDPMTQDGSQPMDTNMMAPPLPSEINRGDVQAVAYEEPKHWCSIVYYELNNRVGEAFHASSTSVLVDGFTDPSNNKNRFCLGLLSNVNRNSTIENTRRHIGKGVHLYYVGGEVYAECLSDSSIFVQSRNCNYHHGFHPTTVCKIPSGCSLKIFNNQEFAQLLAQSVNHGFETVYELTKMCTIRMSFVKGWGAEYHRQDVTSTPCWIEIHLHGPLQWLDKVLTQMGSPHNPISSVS
UniProt Q9HAU4: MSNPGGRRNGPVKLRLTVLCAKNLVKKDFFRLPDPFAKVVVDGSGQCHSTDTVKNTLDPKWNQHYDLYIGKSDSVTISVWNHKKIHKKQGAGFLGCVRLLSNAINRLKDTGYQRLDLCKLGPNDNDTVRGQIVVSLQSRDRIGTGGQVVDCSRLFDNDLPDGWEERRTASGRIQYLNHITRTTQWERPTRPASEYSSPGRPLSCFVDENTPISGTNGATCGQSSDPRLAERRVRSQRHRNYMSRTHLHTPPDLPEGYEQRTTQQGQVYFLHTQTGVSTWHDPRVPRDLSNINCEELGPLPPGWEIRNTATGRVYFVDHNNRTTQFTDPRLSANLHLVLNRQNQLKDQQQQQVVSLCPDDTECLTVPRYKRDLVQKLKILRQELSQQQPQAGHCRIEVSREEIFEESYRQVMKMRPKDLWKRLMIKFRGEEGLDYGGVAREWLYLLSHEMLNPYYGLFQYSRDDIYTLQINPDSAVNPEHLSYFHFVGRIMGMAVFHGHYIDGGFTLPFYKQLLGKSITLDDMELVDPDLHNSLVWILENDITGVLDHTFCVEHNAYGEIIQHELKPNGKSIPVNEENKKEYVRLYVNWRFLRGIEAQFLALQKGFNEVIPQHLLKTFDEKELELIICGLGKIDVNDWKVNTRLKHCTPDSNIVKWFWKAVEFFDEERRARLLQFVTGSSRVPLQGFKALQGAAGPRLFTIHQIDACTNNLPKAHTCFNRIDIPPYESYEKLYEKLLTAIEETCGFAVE
UniProt Q9HCE7: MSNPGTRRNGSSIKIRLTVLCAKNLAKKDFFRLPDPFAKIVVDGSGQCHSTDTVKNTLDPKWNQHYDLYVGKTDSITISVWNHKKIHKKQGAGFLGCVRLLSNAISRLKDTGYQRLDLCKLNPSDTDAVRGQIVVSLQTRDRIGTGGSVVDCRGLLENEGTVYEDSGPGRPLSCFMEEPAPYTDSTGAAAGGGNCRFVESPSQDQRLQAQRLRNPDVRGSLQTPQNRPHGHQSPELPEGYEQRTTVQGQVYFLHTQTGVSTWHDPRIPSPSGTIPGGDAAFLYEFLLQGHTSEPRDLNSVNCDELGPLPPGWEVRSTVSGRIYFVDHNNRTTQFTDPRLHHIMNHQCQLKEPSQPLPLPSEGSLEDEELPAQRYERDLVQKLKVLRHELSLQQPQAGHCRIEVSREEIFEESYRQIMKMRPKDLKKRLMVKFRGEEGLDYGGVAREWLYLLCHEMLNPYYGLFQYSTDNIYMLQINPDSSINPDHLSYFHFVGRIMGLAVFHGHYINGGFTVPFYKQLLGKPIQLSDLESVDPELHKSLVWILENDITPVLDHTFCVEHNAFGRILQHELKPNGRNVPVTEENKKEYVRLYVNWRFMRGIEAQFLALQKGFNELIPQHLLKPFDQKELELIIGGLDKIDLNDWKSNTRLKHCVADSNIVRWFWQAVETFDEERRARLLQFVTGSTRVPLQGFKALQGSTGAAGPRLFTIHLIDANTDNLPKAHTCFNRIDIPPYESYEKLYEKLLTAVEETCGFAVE

T1: FLAG-tagged ZC4H2 (wild-type, full-length mouse), bait of the reverse co-IP (mouse) (UniProt Q68FG0)
T1 sequence: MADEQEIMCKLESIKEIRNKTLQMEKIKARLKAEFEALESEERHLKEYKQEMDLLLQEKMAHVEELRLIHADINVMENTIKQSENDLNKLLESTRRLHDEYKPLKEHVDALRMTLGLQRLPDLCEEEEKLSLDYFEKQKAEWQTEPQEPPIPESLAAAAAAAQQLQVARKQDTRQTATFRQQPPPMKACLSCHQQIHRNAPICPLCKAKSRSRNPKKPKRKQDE


Key:
Experiment in all cases: co-IP; HEK293 cells transiently co-transfected; cell lysates incubated with anti-FLAG beads, washed, western blotting; in the experiments of Figures 8e-h and 10e,f the cells were treated for 8 h with MG132 before harvesting
[1] = target: T1, FLAG-tagged ZC4H2 (wild-type, full-length mouse), bait of the reverse co-IP (mouse)
[2] = target: FLAG-tagged Smad5 (mouse, wild-type) (mouse) (UniProt P97454)
[3] = target: FLAG-tagged Smad1 (human, wild-type) (human) (UniProt Q15797)
[4] = target: FLAG-tagged Smad5 (mouse, wild-type) (mouse) (UniProt P97454); remark: listed apart in the source
[5] = target: FLAG-tagged Smad1 (human, wild-type) (human) (UniProt Q15797); remark: listed apart in the source

binding [4]	binding [5]	Molecule	further results
–	–	Smad5 (mouse), prey of the reverse co-IP (from UniProt P97454 1-465)	binding [1]: binds
–	–	Smurf2 (wild-type) (from UniProt Q9HAU4 1-748) (enzyme)	binding [2]: binds; binding [3]: binds
–	–	Smurf1 (wild-type) (from UniProt Q9HCE7 1-757) (enzyme)	binding [2]: binds
–	–	Smad1 (human), prey of the reverse co-IP (from UniProt Q15797 1-465)	binding [1]: binds
binds	binds	myc-tagged ZC4H2 (wild-type, full-length mouse) (protein, UniProt Q68FG0-1 1-224) MADEQEIMCKLESIKEIRNKTLQMEKIKARLKAEFEALESEERHLKEYKQEMDLLLQEKMAHVEELRLIHADINVMENTIKQSENDLNKLLESTRRLHDEYKPLKEHVDALRMTLGLQRLPDLCEEEEKLSLDYFEKQKAEWQTEPQEPPIPESLAAAAAAAQQLQVARKQDTRQTATFRQQPPPMKACLSCHQQIHRNAPICPLCKAKSRSRNPKKPKRKQDE	–
binds	binds	myc-tagged ZC4H2 R198Q (protein, UniProt Q68FG0-1 1-224) MADEQEIMCKLESIKEIRNKTLQMEKIKARLKAEFEALESEERHLKEYKQEMDLLLQEKMAHVEELRLIHADINVMENTIKQSENDLNKLLESTRRLHDEYKPLKEHVDALRMTLGLQRLPDLCEEEEKLSLDYFEKQKAEWQTEPQEPPIPESLAAAAAAAQQLQVARKQDTRQTATFRQQPPPMKACLSCHQQIHQNAPICPLCKAKSRSRNPKKPKRKQDE	–
binds	binds	myc-tagged ZC4H2 R213W (protein, UniProt Q68FG0-1 1-224) MADEQEIMCKLESIKEIRNKTLQMEKIKARLKAEFEALESEERHLKEYKQEMDLLLQEKMAHVEELRLIHADINVMENTIKQSENDLNKLLESTRRLHDEYKPLKEHVDALRMTLGLQRLPDLCEEEEKLSLDYFEKQKAEWQTEPQEPPIPESLAAAAAAAQQLQVARKQDTRQTATFRQQPPPMKACLSCHQQIHRNAPICPLCKAKSRSWNPKKPKRKQDE	–
binds	binds	myc-tagged ZC4H2 A200V (protein, UniProt Q68FG0-1 1-224) MADEQEIMCKLESIKEIRNKTLQMEKIKARLKAEFEALESEERHLKEYKQEMDLLLQEKMAHVEELRLIHADINVMENTIKQSENDLNKLLESTRRLHDEYKPLKEHVDALRMTLGLQRLPDLCEEEEKLSLDYFEKQKAEWQTEPQEPPIPESLAAAAAAAQQLQVARKQDTRQTATFRQQPPPMKACLSCHQQIHRNVPICPLCKAKSRSRNPKKPKRKQDE	–
binds	binds	myc-tagged ZC4H2 V63L (protein, UniProt Q68FG0-1 1-224) MADEQEIMCKLESIKEIRNKTLQMEKIKARLKAEFEALESEERHLKEYKQEMDLLLQEKMAHLEELRLIHADINVMENTIKQSENDLNKLLESTRRLHDEYKPLKEHVDALRMTLGLQRLPDLCEEEEKLSLDYFEKQKAEWQTEPQEPPIPESLAAAAAAAQQLQVARKQDTRQTATFRQQPPPMKACLSCHQQIHRNAPICPLCKAKSRSRNPKKPKRKQDE	–
binds	binds	myc-tagged ZC4H2 P201S (protein, UniProt Q68FG0-1 1-224) MADEQEIMCKLESIKEIRNKTLQMEKIKARLKAEFEALESEERHLKEYKQEMDLLLQEKMAHVEELRLIHADINVMENTIKQSENDLNKLLESTRRLHDEYKPLKEHVDALRMTLGLQRLPDLCEEEEKLSLDYFEKQKAEWQTEPQEPPIPESLAAAAAAAQQLQVARKQDTRQTATFRQQPPPMKACLSCHQQIHRNASICPLCKAKSRSRNPKKPKRKQDE	–
